{"source": "the supplement of paper PMC8728848", "binders": {"B1": {"name": "PhypaEULS3 (Physcomitrella patens) (protein)", "chain": "MLPVRLHCKADPNFNLAAVPGQGPVMVPFSPNDDFQVWYKDVTMSTRVKDETGSSAFSLINKATGQALRHAPEDLAQCLLADYDSNALDQTVLWTMSEDMGQGYCCIRLASQITRNLDVFRGDKKSGGVKEGSPVITFAWKKQDNQIWKMITAILEQKLISEEDLNSAVDHHHHHH"}}, "assay_in_all_cases": "glycan array binding signal (z-score within array); higher = stronger binding", "details_in_all_cases": "glycan notation: IUPAC condensed, linker removed", "key": {"[1]": {"biological_target": "Fuc(a1-2)Gal(b1-4)GlcNAc(b1-3)Gal(b1-4)GlcNAc(b1-3)Gal(b1-4)GlcNAc", "how_it_was_run": "(§1)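 From the Consortium for Functional Glycomics database, 3228 arrays were curated, keeping only those whose protein sequence was available. Binding is given as a within-array Z-score averaged across arrays sharing a protein sequence and across linkers. Negative Z-scores can be read as non-binding.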"}, "[2]": {"biological_target": "Fuc(a1-2)Gal(b1-4)GlcNAc(b1-3)GalNAc", "how_it_was_run": "as §1"}, "[3]": {"biological_target": "Fuc(a1-2)Gal(b1-4)GlcNAc(b1-3)[Fuc(a1-2)Gal(b1-4)GlcNAc(b1-6)]GalNAc", "how_it_was_run": "as §1"}, "[4]": {"biological_target": "Fuc(a1-2)Gal(b1-4)GlcNAc(b1-3)[Fuc(a1-3)[Gal(b1-4)]GlcNAc(b1-6)]Gal(b1-4)Glc", "how_it_was_run": "as §1"}, "[5]": {"biological_target": "Fuc(a1-2)Gal(b1-4)GlcNAc(b1-6)GalNAc", "how_it_was_run": "as §1"}, "[6]": {"biological_target": "Fuc(a1-2)Gal(b1-4)GlcNAc6S", "how_it_was_run": "as §1"}, "[7]": {"biological_target": "Fuc(a1-2)Gal(b1-4)[Fuc(a1-3)]GlcNAc", "how_it_was_run": "as §1"}, "[8]": {"biological_target": "Fuc(a1-2)Gal(b1-4)[Fuc(a1-3)]GlcNAc(b1-2)Man(a1-3)[Fuc(a1-2)Gal(b1-4)[Fuc(a1-3)]GlcNAc(b1-2)Man(a1-6)]Man(b1-4)GlcNAc(b1-4)[Fuc(a1-6)]GlcNAc", "how_it_was_run": "as §1"}, "[9]": {"biological_target": "Fuc(a1-2)Gal(b1-4)[Fuc(a1-3)]GlcNAc(b1-2)[Fuc(a1-2)Gal(b1-4)[Fuc(a1-3)]GlcNAc(b1-4)]Man(a1-3)[Fuc(a1-2)Gal(b1-4)[Fuc(a1-3)]GlcNAc(b1-2)Man(a1-6)]Man(b1-4)GlcNAc(b1-4)GlcNAc", "how_it_was_run": "as §1"}, "[10]": {"biological_target": "Fuc(a1-2)Gal(b1-4)[Fuc(a1-3)]GlcNAc(b1-3)Gal(b1-4)[Fuc(a1-3)]GlcNAc", "how_it_was_run": "as §1"}, "[11]": {"biological_target": "Fuc(a1-2)Gal(b1-4)[Fuc(a1-3)]GlcNAc(b1-3)Gal(b1-4)[Fuc(a1-3)]GlcNAc(b1-3)Gal(b1-4)[Fuc(a1-3)]GlcNAc", "how_it_was_run": "as §1"}, "[12]": {"biological_target": "Fuc(a1-2)Gal(b1-4)[Fuc(a1-3)]GlcNAc(b1-3)GalNAc", "how_it_was_run": "as §1"}, "[13]": {"biological_target": "Fuc(a1-2)Gal(b1-4)[Fuc(a1-3)]GlcNAc(b1-3)[Neu5Ac(a2-6)Gal(b1-4)GlcNAc(b1-6)]Gal(b1-4)Glc", "how_it_was_run": "as §1"}, "[14]": {"biological_target": "Fuc(a1-2)Gal3S(b1-4)GlcNAc", "how_it_was_run": "as §1"}, "[15]": {"biological_target": "Fuc(a1-2)Gal6S(b1-3)GlcNAc", "how_it_was_run": "as §1"}, "[16]": {"biological_target": "Fuc(a1-2)Gal6S(b1-3)GlcNAc6S", "how_it_was_run": "as §1"}, "Fuc(a1-2)Gal6S(b1-4)Glc": {"biological_target": "Fuc(a1-2)Gal6S(b1-4)Glc", "how_it_was_run": "as §1"}, "[17]": {"biological_target": "Fuc(a1-2)Gal6S(b1-4)Glc6S", "how_it_was_run": "as §1"}, "Fuc(a1-2)[Gal(a1-3)]Gal": {"biological_target": "Fuc(a1-2)[Gal(a1-3)]Gal", "how_it_was_run": "as §1"}, "[18]": {"biological_target": "Fuc(a1-2)[Gal(a1-3)]Gal(b1-3)GalNAc", "how_it_was_run": "as §1"}, "[19]": {"biological_target": "Fuc(a1-2)[Gal(a1-3)]Gal(b1-3)GalNAc(b1-3)Gal(a1-4)Gal(b1-4)Glc", "how_it_was_run": "as §1"}, "[20]": {"biological_target": "Fuc(a1-2)[Gal(a1-3)]Gal(b1-3)GlcNAc", "how_it_was_run": "as §1"}, "[21]": {"biological_target": "Fuc(a1-2)[Gal(a1-3)]Gal(b1-3)GlcNAc(b1-2)Man(a1-3)[Fuc(a1-2)[Gal(a1-3)]Gal(b1-3)GlcNAc(b1-2)Man(a1-6)]Man(b1-4)GlcNAc(b1-4)GlcNAc", "how_it_was_run": "as §1"}, "[22]": {"biological_target": "Fuc(a1-2)[Gal(a1-3)]Gal(b1-3)GlcNAc(b1-2)Man(a1-3)[Fuc(a1-2)[Gal(a1-3)]Gal(b1-3)GlcNAc(b1-2)Man(a1-6)]Man(b1-4)GlcNAc(b1-4)[Fuc(a1-6)]GlcNAc", "how_it_was_run": "as §1"}, "[23]": {"biological_target": "Fuc(a1-2)[Gal(a1-3)]Gal(b1-3)GlcNAc(b1-3)GalNAc", "how_it_was_run": "as §1"}, "[24]": {"biological_target": "Fuc(a1-2)[Gal(a1-3)]Gal(b1-3)GlcNAc(b1-6)GalNAc", "how_it_was_run": "as §1"}, "[25]": {"biological_target": "Fuc(a1-2)[Gal(a1-3)]Gal(b1-4)Glc", "how_it_was_run": "as §1"}, "[26]": {"biological_target": "Fuc(a1-2)[Gal(a1-3)]Gal(b1-4)GlcNAc", "how_it_was_run": "as §1"}, "[27]": {"biological_target": "Fuc(a1-2)[Gal(a1-3)]Gal(b1-4)GlcNAc(b1-2)Man", "how_it_was_run": "as §1"}, "[28]": {"biological_target": "Fuc(a1-2)[Gal(a1-3)]Gal(b1-4)GlcNAc(b1-2)Man(a1-3)[Fuc(a1-2)[Gal(a1-3)]Gal(b1-4)GlcNAc(b1-2)Man(a1-6)]Man(b1-4)GlcNAc(b1-4)GlcNAc", "how_it_was_run": "as §1"}}, "note": "The list shows a part of the results."}
{"binder": "B1", "values": [{"measurement": "glycan array binding signal (z-score)", "setting": "[1]", "value": 0.095}, {"measurement": "glycan array binding signal (z-score)", "setting": "[2]", "value": 0.368}, {"measurement": "glycan array binding signal (z-score)", "setting": "[3]", "value": 0.099}, {"measurement": "glycan array binding signal (z-score)", "setting": "[4]", "value": -1.98}, {"measurement": "glycan array binding signal (z-score)", "setting": "[5]", "value": -1.07}, {"measurement": "glycan array binding signal (z-score)", "setting": "[6]", "value": 1.08}, {"measurement": "glycan array binding signal (z-score)", "setting": "[7]", "value": -0.057}, {"measurement": "glycan array binding signal (z-score)", "setting": "[8]", "value": 1.06}, {"measurement": "glycan array binding signal (z-score)", "setting": "[9]", "value": 1.21}, {"measurement": "glycan array binding signal (z-score)", "setting": "[10]", "value": -0.629}, {"measurement": "glycan array binding signal (z-score)", "setting": "[11]", "value": -0.477}, {"measurement": "glycan array binding signal (z-score)", "setting": "[12]", "value": 1.99}, {"measurement": "glycan array binding signal (z-score)", "setting": "[13]", "value": 0.284}, {"measurement": "glycan array binding signal (z-score)", "setting": "[14]", "value": -0.262}, {"measurement": "glycan array binding signal (z-score)", "setting": "[15]", "value": 1.58}, {"measurement": "glycan array binding signal (z-score)", "setting": "[16]", "value": 3.08}, {"measurement": "glycan array binding signal (z-score)", "setting": "Fuc(a1-2)Gal6S(b1-4)Glc", "value": -1.07}, {"measurement": "glycan array binding signal (z-score)", "setting": "[17]", "value": 1.17}, {"measurement": "glycan array binding signal (z-score)", "setting": "Fuc(a1-2)[Gal(a1-3)]Gal", "value": 1.05}, {"measurement": "glycan array binding signal (z-score)", "setting": "[18]", "value": 0.261}, {"measurement": "glycan array binding signal (z-score)", "setting": "[19]", "value": -0.063}, {"measurement": "glycan array binding signal (z-score)", "setting": "[20]", "value": -0.005}, {"measurement": "glycan array binding signal (z-score)", "setting": "[21]", "value": 0.581}, {"measurement": "glycan array binding signal (z-score)", "setting": "[22]", "value": 0.598}, {"measurement": "glycan array binding signal (z-score)", "setting": "[23]", "value": 0.569}, {"measurement": "glycan array binding signal (z-score)", "setting": "[24]", "value": 1.08}, {"measurement": "glycan array binding signal (z-score)", "setting": "[25]", "value": -1.23}, {"measurement": "glycan array binding signal (z-score)", "setting": "[26]", "value": 0.471}, {"measurement": "glycan array binding signal (z-score)", "setting": "[27]", "value": 0.472}, {"measurement": "glycan array binding signal (z-score)", "setting": "[28]", "value": -0.394}]}
